# Experimental data published in the supplement of paper PMC8728848.
# The other results are listed elsewhere or left out.
# Assays:
# Test in all cases: glycan array binding signal (z-score within array); higher = stronger binding
# Settings in all cases: glycan notation: IUPAC condensed, linker removed
# [1] = target: Fuc(a1-3)[Gal(b1-4)]GlcNAc(b1-3)Gal(b1-3)[Fuc(a1-4)]GlcNAc
# Procedure, shortened: (§1)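 Negative Z-scores can be read as non-binding. The Z-score is calculated within each array and then averaged across arrays of one protein sequence at different concentrations or buffers and across linkers. Arrays, 3228 in all, were curated from the Consortium for Functional Glycomics database and kept only where the protein sequence was available.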
# [2] = target: Fuc(a1-3)[Gal(b1-4)]GlcNAc(b1-3)Gal(b1-4)[Fuc(a1-3)]GlcNAc
# Procedure, shortened: as §1
# [3] = target: Fuc(a1-3)[Gal(b1-4)]GlcNAc(b1-3)Gal(b1-4)[Fuc(a1-3)]GlcNAc(b1-3)Gal(b1-4)[Fuc(a1-3)]GlcNAc
# Procedure, shortened: as §1
# [4] = target: Fuc(a1-3)[Gal(b1-4)]GlcNAc(b1-3)GalNAc
# Procedure, shortened: as §1
# [5] = target: Fuc(a1-3)[Gal(b1-4)]GlcNAc(b1-6)GalNAc
# Procedure, shortened: as §1
# [6] = target: Fuc(a1-3)[Gal(b1-4)]GlcNAc(b1-6)[Gal(b1-3)GlcNAc(b1-3)]Gal(b1-4)Glc
# Procedure, shortened: as §1
# [7] = target: Fuc(a1-3)[Gal(b1-4)]GlcNAc6S
# Procedure, shortened: as §1
# [8] = target: Fuc(a1-3)[Gal3S(b1-4)]Glc
# Procedure, shortened: as §1
# [9] = target: Fuc(a1-3)[Gal3S(b1-4)]GlcNAc
# Procedure, shortened: as §1
# [10] = target: Fuc(a1-3)[Gal3S(b1-4)]GlcNAc6S
# Procedure, shortened: as §1
# [11] = target: Fuc(a1-3)[GalNAc(b1-4)]GlcNAc
# Procedure, shortened: as §1
# [12] = target: Fuc(a1-3)[GalNAc(b1-4)]GlcNAc6S
# Procedure, shortened: as §1
# Fuc(a1-4)GlcNAc = target: Fuc(a1-4)GlcNAc
# Procedure, shortened: as §1
# Fuc(b1-3)GlcNAc = target: Fuc(b1-3)GlcNAc
# Procedure, shortened: as §1
# Gal(a1-2)Gal = target: Gal(a1-2)Gal
# Procedure, shortened: as §1
# Gal(a1-3)Gal = target: Gal(a1-3)Gal
# Procedure, shortened: as §1
# Gal(a1-3)Gal(b1-3)GlcNAc = target: Gal(a1-3)Gal(b1-3)GlcNAc
# Procedure, shortened: as §1
# [13] = target: Gal(a1-3)Gal(b1-3)GlcNAc(b1-2)Man
# Procedure, shortened: as §1
# [14] = target: Gal(a1-3)Gal(b1-3)GlcNAc(b1-2)Man(a1-3)[Gal(a1-3)Gal(b1-3)GlcNAc(b1-2)Man(a1-6)]Man(b1-4)GlcNAc(b1-4)GlcNAc
# Procedure, shortened: as §1
# [15] = target: Gal(a1-3)Gal(b1-3)GlcNAc(b1-3)GalNAc
# Procedure, shortened: as §1
# [16] = target: Gal(a1-3)Gal(b1-3)GlcNAc(b1-6)GalNAc
# Procedure, shortened: as §1
# [17] = target: Gal(a1-3)Gal(b1-3)[Fuc(a1-4)]GlcNAc(b1-2)Man(a1-3)[Gal(a1-3)Gal(b1-3)[Fuc(a1-4)]GlcNAc(b1-2)Man(a1-6)]Man(b1-4)GlcNAc(b1-4)GlcNAc
# Procedure, shortened: as §1
# Gal(a1-3)Gal(b1-4)Glc = target: Gal(a1-3)Gal(b1-4)Glc
# Procedure, shortened: as §1
# Gal(a1-3)Gal(b1-4)GlcNAc = target: Gal(a1-3)Gal(b1-4)GlcNAc
# Procedure, shortened: as §1
# [18] = target: Gal(a1-3)Gal(b1-4)GlcNAc(b1-2)Man
# Procedure, shortened: as §1
# [19] = target: Gal(a1-3)Gal(b1-4)GlcNAc(b1-2)Man(a1-3)[Gal(a1-3)Gal(b1-4)GlcNAc(b1-2)Man(a1-6)]Man(b1-4)GlcNAc(b1-4)GlcNAc
# Procedure, shortened: as §1
# [20] = target: Gal(a1-3)Gal(b1-4)GlcNAc(b1-3)GalNAc
# Procedure, shortened: as §1
# [21] = target: Gal(a1-3)Gal(b1-4)GlcNAc(b1-6)GalNAc
# Procedure, shortened: as §1
# [22] = target: Gal(a1-3)Gal(b1-4)[Fuc(a1-3)]GlcNAc
# Procedure, shortened: as §1
# [23] = target: Gal(a1-3)Gal(b1-4)[Fuc(a1-3)]GlcNAc(b1-2)Man(a1-3)[Gal(a1-3)Gal(b1-4)[Fuc(a1-3)]GlcNAc(b1-2)Man(a1-6)]Man(b1-4)GlcNAc(b1-4)GlcNAc
# Procedure, shortened: as §1
# Gal(a1-3)GalNAc = target: Gal(a1-3)GalNAc
# Procedure, shortened: as §1
# [24] = target: Gal(a1-3)[Gal(a1-4)]Gal(b1-4)GlcNAc
# Procedure, shortened: as §1
# [25] = target: Gal(a1-4)Gal(b1-3)GlcNAc(b1-2)Man(a1-3)[Gal(a1-4)Gal(b1-3)GlcNAc(b1-2)Man(a1-6)]Man(b1-4)GlcNAc(b1-4)GlcNAc
# Procedure, shortened: as §1
# Gal(a1-4)Gal(b1-4)Glc = target: Gal(a1-4)Gal(b1-4)Glc
# Procedure, shortened: as §1
# Gal(a1-4)Gal(b1-4)GlcNAc = target: Gal(a1-4)Gal(b1-4)GlcNAc
# Procedure, shortened: as §1
# [26] = target: Gal(a1-4)Gal(b1-4)GlcNAc(b1-2)Man(a1-3)[Gal(a1-4)Gal(b1-4)GlcNAc(b1-2)Man(a1-6)]Man(b1-4)GlcNAc(b1-4)GlcNAc
# Procedure, shortened: as §1
# [27] = target: Gal(a1-4)Gal(b1-4)GlcNAc(b1-3)Gal(b1-4)Glc
# Procedure, shortened: as §1
# Gal(a1-4)GlcNAc = target: Gal(a1-4)GlcNAc
# Procedure, shortened: as §1
binder,measurement,setting,value
"RsaA-N-term (Caulobacter crescentus), P35828 (protein) MAYTTAQLVTAYTNANLGKAPDAATTLTLDAYATQTQTGGLSDAAALTNTLKLVNSTTAVAIQTYQFFTGVAPSAAGLDFLVDSTTNTNDLNDAYYSKFAQENRFINFSINLATGAGAGATAFAAAYTGVSYAQTVATAYDKIIGNAVATAAGVDVAAAVAFLSRQANIDYLTAFVRANTPFTAAADIDLAVKAALIGTILNAATVSGIGGYATATAAMINDLSDGALSTDNAAGVNLFTAYPSSGVSGSTLSLTTGTDTLTGTANNDTFVAGEVAGDGSGWSHPQFEKGG",glycan array binding signal (z-score),[1],-0.179
same,glycan array binding signal (z-score),[2],1.23
same,glycan array binding signal (z-score),[3],-0.91
same,glycan array binding signal (z-score),[4],-0.014
same,glycan array binding signal (z-score),[5],0.368
same,glycan array binding signal (z-score),[6],-1.36
same,glycan array binding signal (z-score),[7],-0.166
same,glycan array binding signal (z-score),[8],-0.005
same,glycan array binding signal (z-score),[9],-0.602
same,glycan array binding signal (z-score),[10],-0.52
same,glycan array binding signal (z-score),[11],0.166
same,glycan array binding signal (z-score),[12],-0.365
same,glycan array binding signal (z-score),Fuc(a1-4)GlcNAc,1.04
same,glycan array binding signal (z-score),Fuc(b1-3)GlcNAc,0.045
same,glycan array binding signal (z-score),Gal(a1-2)Gal,0.297
same,glycan array binding signal (z-score),Gal(a1-3)Gal,-0.71
same,glycan array binding signal (z-score),Gal(a1-3)Gal(b1-3)GlcNAc,-0.108
same,glycan array binding signal (z-score),[13],0.223
same,glycan array binding signal (z-score),[14],0.121
same,glycan array binding signal (z-score),[15],-1.11
same,glycan array binding signal (z-score),[16],0.171
same,glycan array binding signal (z-score),[17],-0.105
same,glycan array binding signal (z-score),Gal(a1-3)Gal(b1-4)Glc,-0.288
same,glycan array binding signal (z-score),Gal(a1-3)Gal(b1-4)GlcNAc,0.324
same,glycan array binding signal (z-score),[18],0.181
same,glycan array binding signal (z-score),[19],-0.761
same,glycan array binding signal (z-score),[20],-0.206
same,glycan array binding signal (z-score),[21],-0.692
same,glycan array binding signal (z-score),[22],0.205
same,glycan array binding signal (z-score),[23],0.451
same,glycan array binding signal (z-score),Gal(a1-3)GalNAc,0.296
same,glycan array binding signal (z-score),[24],0.711
same,glycan array binding signal (z-score),[25],1.43
same,glycan array binding signal (z-score),Gal(a1-4)Gal(b1-4)Glc,-0.974
same,glycan array binding signal (z-score),Gal(a1-4)Gal(b1-4)GlcNAc,-0.399
same,glycan array binding signal (z-score),[26],0.843
same,glycan array binding signal (z-score),[27],-2.79
same,glycan array binding signal (z-score),Gal(a1-4)GlcNAc,0.59

# 2 records drawn at random from those above, as already listed:
binder,measurement,setting,value
"RsaA-N-term (Caulobacter crescentus), P35828 (protein) MAYTTAQLVTAYTNANLGKAPDAATTLTLDAYATQTQTGGLSDAAALTNTLKLVNSTTAVAIQTYQFFTGVAPSAAGLDFLVDSTTNTNDLNDAYYSKFAQENRFINFSINLATGAGAGATAFAAAYTGVSYAQTVATAYDKIIGNAVATAAGVDVAAAVAFLSRQANIDYLTAFVRANTPFTAAADIDLAVKAALIGTILNAATVSGIGGYATATAAMINDLSDGALSTDNAAGVNLFTAYPSSGVSGSTLSLTTGTDTLTGTANNDTFVAGEVAGDGSGWSHPQFEKGG",glycan array binding signal (z-score),Gal(a1-3)GalNAc,0.296
same,glycan array binding signal (z-score),Gal(a1-3)Gal(b1-4)Glc,-0.288
